Laboratory results published in publication doi:10.1101/339499.

Experiments:
Experiment in all cases: affinity purification with mass spectrometry
[1] = molecular target: T1, Brf1-FLAG (TFIIIB subunit Brf1, FLAG-tagged) (yeast) (UniProt P29056)
T1 sequence: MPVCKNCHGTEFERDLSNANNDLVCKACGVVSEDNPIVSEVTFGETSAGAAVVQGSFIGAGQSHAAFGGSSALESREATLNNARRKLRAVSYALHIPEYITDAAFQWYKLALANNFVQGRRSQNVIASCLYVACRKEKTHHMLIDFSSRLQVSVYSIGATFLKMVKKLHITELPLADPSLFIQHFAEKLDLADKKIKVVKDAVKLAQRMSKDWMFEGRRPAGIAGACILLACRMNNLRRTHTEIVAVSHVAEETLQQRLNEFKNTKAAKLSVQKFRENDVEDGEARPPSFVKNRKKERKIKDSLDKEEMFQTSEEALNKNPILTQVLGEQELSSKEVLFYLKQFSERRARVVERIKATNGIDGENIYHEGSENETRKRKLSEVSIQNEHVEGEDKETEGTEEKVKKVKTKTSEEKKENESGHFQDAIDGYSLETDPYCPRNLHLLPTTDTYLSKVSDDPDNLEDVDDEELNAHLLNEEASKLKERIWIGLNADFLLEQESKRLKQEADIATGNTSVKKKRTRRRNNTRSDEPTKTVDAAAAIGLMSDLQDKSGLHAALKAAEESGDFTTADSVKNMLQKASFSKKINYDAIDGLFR

[2] = molecular target: T2, Tfc6-FLAG (TFIIIC subunit Tfc6, FLAG-tagged) (yeast) (UniProt Q06339)
T2 sequence: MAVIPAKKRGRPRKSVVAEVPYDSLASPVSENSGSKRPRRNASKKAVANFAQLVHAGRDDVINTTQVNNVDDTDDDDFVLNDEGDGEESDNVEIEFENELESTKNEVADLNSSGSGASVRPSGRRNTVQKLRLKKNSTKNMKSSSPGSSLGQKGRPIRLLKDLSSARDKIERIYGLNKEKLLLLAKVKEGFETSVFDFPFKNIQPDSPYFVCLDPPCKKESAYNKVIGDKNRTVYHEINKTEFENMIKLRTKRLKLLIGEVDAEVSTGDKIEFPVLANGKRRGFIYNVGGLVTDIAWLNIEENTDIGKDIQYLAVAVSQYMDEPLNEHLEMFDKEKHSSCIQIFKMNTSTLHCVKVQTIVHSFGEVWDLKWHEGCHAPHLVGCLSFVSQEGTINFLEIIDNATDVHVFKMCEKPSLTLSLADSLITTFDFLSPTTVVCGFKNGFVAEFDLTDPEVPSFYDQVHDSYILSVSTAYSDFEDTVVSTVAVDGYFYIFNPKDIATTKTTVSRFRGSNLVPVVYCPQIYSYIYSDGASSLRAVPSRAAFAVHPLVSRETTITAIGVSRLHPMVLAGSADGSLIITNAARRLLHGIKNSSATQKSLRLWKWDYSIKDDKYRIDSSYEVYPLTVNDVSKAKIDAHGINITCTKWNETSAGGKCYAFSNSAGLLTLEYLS

[3] = molecular target: T3, Rpc128-Flag (pol III subunit Rpc128, FLAG-tagged) (yeast) (UniProt P22276)
T3 sequence: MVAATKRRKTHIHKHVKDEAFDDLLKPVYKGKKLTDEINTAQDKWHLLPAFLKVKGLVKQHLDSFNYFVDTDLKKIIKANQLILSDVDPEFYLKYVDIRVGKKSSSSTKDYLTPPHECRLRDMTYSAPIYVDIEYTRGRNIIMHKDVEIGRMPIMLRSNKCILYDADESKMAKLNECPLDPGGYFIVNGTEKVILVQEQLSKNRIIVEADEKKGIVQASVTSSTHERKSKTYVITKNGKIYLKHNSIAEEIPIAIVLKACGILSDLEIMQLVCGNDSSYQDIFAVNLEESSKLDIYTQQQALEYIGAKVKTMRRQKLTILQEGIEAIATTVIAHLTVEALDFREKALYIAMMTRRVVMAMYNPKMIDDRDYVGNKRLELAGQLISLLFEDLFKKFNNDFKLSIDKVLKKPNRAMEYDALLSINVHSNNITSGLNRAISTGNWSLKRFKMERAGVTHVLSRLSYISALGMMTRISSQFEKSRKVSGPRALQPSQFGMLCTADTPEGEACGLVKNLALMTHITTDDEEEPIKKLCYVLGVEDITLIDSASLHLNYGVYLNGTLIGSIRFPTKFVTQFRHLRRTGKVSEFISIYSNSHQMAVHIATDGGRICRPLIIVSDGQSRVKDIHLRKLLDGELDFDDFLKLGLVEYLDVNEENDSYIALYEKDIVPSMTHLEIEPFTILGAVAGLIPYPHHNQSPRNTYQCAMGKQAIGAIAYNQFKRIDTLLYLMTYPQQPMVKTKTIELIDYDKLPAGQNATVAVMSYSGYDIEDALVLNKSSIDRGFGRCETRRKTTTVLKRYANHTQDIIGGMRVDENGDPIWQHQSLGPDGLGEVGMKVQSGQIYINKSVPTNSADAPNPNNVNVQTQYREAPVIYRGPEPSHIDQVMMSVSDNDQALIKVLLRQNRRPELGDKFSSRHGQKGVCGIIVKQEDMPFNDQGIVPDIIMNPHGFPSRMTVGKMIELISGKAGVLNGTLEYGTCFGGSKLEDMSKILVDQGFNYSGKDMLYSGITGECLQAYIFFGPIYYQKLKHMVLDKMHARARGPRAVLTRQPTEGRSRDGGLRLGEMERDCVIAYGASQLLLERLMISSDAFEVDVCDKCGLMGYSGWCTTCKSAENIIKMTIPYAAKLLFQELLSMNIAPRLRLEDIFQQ

Measured: binding

B1: Leo1 (subunit of the Paf1 complex) (protein, UniProt P38439 1-464)
chain: MSSESPQDQPQKEQISNNVGVTTNSTSNEETSRSQDDNVKEVNGNDDTKEEEQEEDAELDDLFGDDNDDDDDDDVKKSETEKSDSDSDEDDEGENINHRSRHRESLGLDDDEAEEQAMYTRKFYGEDANNFSDQDETTHTFKEENVELVRHIIPSKANVNETASHNEIFYARIPNFLTIDPIPFDPPSFEAKVNERASNSASREDQLDDRLIDENTVRWRYSRDKDQHVFKESNTQIVQWSDGTYSLKVGEECTDILVNDTSNTFLTVSHDQQELIQCYEGGEIKKTLMFIPTSTNSKIHQKLSKAVIRRNQRQSKGPGTYIVSMDPEVEKKELERKQSQILRDRRRRQLKEKEKQESPDAAFETGFRKQNSPTTYGASRRNEYEEDDFLVDDDEEEEAAFDDEEDDNEEEEEEEDADEENASRLRNLKREGAAMYREEEEEEKDRSETKRRRVAVIEDDEDED
binds: [1] | [2] | [3]

B2: Ctr9 (subunit of the Paf1 complex) (protein, UniProt P89105 1-1077)
chain: MTNAMKVEGYPSMEWPTSLDIPLKASEELVGIDLETDLPDDPTDLKTLLVEENSEKEHWLTIALAYCNHGKTNEGIKLIEMALDVFQNSERASLHTFLTWAHLNLAKGQSLSVETKEHELTQAELNLKDAIGFDPTWIGNMLATVELYYQRGHYDKALETSDLFVKSIHAEDHRSGRQSKPNCLFLLLRAKLLYQKKNYMASLKIFQELLVINPVLQPDPRIGIGLCFWQLKDSKMAIKSWQRALQLNPKNTSASILVLLGEFRESFTNSTNDKTFKEAFTKALSDLNNIFSENQHNPVLLTLLQTYYYFKGDYQTVLDIYHHRILKMSPMIAKIVLSESSFWCGRAHYALGDYRKSFIMFQESLKKNEDNLLAKLGLGQTQIKNNLLEESIITFENLYKTNESLQELNYILGMLYAGKAFDAKTAKNTSAKEQSNLNEKALKYLERYLKLTLATKNQLVISRAYLVISQLYELQNQYKTSLDYLSKALEEMEFIKKEIPLEVLNNLACYHFINGDFIKADDLFKQAKAKVSDKDESVNITLEYNIARTNEKNDCEKSESIYSQVTSLHPAYIAARIRNLYLKFAQSKIEDSDMSTEMNKLLDLNKSDLEIRSFYGWYLKNSKERKNNEKSTTHNKETLVKYNSHDAYALISLANLYVTIARDGKKSRNPKEQEKSKHSYLKAIQLYQKVLQVDPFNIFAAQGLAIIFAESKRLGPALEILRKVRDSLDNEDVQLNLAHCYLEMREYGKAIENYELVLKKFDNEKTRPHILNLLGRAWYARAIKERSVNFYQKALENAKTALDLFVKESSKSKFIHSVKFNIALLHFQIAETLRRSNPKFRTVQQIKDSLEGLKEGLELFRELNDLKEFNMIPKEELEQRIQLGETTMKSALERSLNEQEEFEKEQSAKIDEARKILEENELKEQGWMKQEEEARRLKLEKQAEEYRKLQDEAQKLIQEREAMAISEHNVKDDSDLSDKDNEYDEEKPRQKRKRSTKTKNSGESKRRKAAKKTLSDSDEDDDDVVKKPSHNKGKKSQLSNEFIEDSDEEEAQMSGSEQNKNDDNDENNDNDDNDGLF
binds: [1] | [2] | [3]

B3: Cdc73 (subunit of the Paf1 complex) (protein, UniProt Q06697 1-393)
chain: MANSLDRLREHLKNGDKLVLKNNEGQSTDDITKATMVETLSSDGSTQDSFPLNEETEIEIDGSLVQLRIIVHCWMNKDSSAADYLADCQNKQLTNVSFLQRTDLINWLSGNTESSQYLKAPGQKGETSDKVDIENKTLAGELSTVKSTTSASLENDSEVSDPVVVETMKHERILVDHNSALRGAKPINFGYLIKDAELKLVQSIKGSLRGSKLPPGHKGAHGRISKTNGSSGGPRKDPIILIPSAASSILTVANIKQFLLESKYVNPRNLPSVPNGLVNIEKNFERISRPIRFIIVDNTRMFTKPEYWDRVVAIFTTGHTWQFNNYQWNSPQELFQRCKGYYFHFAGDSVPQHVQQWNVEKVELDKNKRFKDVEVVRYFWHSLEKELISRGYR
binds: [1] | [2] | [3]

These are yes or no findings as the source states them, for the method shown. In cells and extracts the contact can be indirect. These calls come from enrichment with a bait or labelling near it, and not all partners need be listed. Tags and fused reporters may be left off the sequences shown.
